The other results are listed elsewhere or left out.
Tests used:
Assay in all cases: log2 fold change, soluble protein after heating vs DMSO (PISA); higher = thermal stabilisation; K562 cells, 10 uM, 30 min; active = over 0.2 and 3.5 SD of the protein, either way, in both replicates (recomputed)
[1] = compound: CC1=C(C=C(C=C1)NC(=O)C2=CC(=CC=C2)C(C)(C)C#N)NC3=CC4=C(C=C3)N=CN(C4=O)C
In short: (§1)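 Soluble protein was defined as the supernatant after 21,000xg for 90 min. It came from K562 cells at 2×10^6 cells/mL given 10 μM compound for 30 min, heated in aliquots for 3 min across 48°C-58°C, pooled, and extracted in PBS with 0.5% NP-40 at 4°C, and was quantified by TMTpro 16plex LC-MS/MS with equalised channel sums. Thermal stability against control samples, from duplicates, is reported as log2 fold change.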

Protein sequences, listed by entry. Tags and fused reporters are not part of them. Lines headed by an entry give the natural chain unless they say otherwise; changes in a name come on top.
UniProt P48163: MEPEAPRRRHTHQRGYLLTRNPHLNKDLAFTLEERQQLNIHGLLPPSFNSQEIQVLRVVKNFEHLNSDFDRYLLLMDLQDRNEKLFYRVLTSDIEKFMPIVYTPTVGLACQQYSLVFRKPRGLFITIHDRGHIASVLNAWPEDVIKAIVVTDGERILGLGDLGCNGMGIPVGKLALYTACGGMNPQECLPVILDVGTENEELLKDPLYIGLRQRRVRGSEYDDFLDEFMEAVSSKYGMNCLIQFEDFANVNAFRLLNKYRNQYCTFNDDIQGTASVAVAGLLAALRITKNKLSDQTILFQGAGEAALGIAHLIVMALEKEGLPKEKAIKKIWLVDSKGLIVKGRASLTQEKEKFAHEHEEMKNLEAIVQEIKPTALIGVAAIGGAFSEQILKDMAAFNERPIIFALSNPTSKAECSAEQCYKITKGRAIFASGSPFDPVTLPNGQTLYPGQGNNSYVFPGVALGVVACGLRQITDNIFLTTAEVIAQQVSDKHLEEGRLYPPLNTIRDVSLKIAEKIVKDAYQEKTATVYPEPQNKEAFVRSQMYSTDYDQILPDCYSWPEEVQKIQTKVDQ
UniProt Q9NRN9: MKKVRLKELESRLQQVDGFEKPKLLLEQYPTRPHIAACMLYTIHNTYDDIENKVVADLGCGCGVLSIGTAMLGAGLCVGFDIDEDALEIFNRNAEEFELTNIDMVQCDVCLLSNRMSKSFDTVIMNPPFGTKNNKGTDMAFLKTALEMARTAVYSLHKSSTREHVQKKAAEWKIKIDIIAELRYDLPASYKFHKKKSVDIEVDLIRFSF
UniProt P40926: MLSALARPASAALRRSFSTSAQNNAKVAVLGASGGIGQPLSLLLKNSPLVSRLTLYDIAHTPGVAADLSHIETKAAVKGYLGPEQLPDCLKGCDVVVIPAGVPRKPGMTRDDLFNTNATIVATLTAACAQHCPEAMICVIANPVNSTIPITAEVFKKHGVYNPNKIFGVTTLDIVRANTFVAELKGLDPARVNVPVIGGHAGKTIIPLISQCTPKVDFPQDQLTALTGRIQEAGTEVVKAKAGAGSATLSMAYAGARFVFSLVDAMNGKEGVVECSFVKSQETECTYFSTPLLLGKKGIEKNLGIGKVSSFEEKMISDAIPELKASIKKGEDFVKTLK
UniProt Q96GW9: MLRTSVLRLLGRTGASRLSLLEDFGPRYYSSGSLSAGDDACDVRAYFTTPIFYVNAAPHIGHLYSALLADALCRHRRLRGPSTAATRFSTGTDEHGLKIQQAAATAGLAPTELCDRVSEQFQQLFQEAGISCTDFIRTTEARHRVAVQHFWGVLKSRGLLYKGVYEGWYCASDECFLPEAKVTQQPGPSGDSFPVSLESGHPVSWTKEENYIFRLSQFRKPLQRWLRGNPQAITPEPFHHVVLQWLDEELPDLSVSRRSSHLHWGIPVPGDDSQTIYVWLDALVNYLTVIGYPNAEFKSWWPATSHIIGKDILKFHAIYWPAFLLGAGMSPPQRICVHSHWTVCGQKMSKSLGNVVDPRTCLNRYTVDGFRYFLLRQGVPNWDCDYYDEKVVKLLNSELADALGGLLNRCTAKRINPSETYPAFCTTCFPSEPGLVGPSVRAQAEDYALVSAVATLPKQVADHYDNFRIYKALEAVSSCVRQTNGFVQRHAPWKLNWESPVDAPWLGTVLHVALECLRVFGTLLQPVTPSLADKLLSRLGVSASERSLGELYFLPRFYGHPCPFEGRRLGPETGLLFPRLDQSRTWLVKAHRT
UniProt Q9BUE0: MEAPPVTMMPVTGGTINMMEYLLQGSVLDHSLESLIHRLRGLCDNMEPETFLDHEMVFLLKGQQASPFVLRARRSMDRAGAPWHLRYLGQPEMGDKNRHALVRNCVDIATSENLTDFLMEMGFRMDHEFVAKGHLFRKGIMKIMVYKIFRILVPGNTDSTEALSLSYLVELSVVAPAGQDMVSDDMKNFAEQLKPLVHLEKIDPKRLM
UniProt P50579: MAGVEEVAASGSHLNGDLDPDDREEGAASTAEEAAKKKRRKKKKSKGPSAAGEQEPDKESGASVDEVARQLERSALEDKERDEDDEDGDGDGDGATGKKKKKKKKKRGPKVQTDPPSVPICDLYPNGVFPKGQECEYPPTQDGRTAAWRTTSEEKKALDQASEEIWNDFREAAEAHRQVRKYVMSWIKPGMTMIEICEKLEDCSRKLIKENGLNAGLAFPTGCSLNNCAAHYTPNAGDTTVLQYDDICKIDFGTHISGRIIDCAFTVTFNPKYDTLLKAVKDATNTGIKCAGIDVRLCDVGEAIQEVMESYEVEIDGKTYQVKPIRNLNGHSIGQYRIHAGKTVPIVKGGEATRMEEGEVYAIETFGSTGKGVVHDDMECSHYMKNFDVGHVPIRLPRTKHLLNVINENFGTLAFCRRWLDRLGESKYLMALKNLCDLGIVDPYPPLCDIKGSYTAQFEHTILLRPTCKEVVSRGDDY
UniProt Q99735: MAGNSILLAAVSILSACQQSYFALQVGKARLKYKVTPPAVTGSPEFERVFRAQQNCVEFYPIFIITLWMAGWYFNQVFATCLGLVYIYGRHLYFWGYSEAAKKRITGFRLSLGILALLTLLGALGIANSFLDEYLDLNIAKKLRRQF
UniProt Q96N66: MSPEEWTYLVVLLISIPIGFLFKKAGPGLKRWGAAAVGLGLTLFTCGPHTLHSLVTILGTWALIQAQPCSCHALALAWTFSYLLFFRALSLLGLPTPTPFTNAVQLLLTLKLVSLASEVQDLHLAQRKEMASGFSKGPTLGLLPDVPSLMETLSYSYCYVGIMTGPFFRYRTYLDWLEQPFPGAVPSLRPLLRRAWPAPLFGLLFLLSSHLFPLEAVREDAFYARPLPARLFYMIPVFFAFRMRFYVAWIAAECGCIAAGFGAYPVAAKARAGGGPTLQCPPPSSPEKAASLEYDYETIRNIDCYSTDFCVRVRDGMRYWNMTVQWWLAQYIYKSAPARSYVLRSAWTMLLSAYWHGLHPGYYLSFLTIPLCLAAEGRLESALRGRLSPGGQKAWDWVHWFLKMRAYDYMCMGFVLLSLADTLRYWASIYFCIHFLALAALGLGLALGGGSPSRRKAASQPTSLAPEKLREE
UniProt Q86U44, whole entry, looked up: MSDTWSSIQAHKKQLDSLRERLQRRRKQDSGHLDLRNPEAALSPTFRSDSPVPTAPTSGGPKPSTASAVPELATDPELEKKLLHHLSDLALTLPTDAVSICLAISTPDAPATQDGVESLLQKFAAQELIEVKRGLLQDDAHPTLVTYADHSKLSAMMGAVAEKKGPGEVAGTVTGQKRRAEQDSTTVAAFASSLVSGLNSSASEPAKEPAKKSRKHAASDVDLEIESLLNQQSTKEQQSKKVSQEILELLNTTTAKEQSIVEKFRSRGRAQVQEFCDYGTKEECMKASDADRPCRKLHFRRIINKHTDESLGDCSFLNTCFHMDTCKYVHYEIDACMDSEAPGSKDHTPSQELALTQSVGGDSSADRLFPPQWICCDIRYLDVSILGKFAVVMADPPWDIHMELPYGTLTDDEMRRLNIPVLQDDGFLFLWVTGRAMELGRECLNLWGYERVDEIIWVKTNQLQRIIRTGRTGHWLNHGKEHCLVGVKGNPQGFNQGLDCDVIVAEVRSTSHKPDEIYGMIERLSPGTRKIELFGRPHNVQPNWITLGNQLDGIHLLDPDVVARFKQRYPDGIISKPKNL
UniProt Q8WXB1: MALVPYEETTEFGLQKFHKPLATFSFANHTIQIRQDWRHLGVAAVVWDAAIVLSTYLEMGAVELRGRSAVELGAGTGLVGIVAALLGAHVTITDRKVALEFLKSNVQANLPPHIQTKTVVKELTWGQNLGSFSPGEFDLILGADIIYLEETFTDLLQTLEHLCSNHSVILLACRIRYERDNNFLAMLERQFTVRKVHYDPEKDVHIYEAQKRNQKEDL
UniProt Q06413, whole entry, looked up: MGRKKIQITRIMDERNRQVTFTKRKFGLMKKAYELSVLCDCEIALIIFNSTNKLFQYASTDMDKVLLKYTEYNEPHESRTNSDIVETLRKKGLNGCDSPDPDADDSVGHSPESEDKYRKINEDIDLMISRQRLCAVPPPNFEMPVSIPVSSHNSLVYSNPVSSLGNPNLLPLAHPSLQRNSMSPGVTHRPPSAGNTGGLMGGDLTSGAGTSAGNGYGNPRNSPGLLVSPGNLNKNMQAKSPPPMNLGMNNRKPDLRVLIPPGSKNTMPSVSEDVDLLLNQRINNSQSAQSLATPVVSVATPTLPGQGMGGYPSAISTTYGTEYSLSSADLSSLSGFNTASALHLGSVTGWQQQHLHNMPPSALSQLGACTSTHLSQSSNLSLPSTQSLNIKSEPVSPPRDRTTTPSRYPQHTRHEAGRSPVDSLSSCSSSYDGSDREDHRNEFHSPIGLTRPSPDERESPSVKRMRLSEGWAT
UniProt P26572: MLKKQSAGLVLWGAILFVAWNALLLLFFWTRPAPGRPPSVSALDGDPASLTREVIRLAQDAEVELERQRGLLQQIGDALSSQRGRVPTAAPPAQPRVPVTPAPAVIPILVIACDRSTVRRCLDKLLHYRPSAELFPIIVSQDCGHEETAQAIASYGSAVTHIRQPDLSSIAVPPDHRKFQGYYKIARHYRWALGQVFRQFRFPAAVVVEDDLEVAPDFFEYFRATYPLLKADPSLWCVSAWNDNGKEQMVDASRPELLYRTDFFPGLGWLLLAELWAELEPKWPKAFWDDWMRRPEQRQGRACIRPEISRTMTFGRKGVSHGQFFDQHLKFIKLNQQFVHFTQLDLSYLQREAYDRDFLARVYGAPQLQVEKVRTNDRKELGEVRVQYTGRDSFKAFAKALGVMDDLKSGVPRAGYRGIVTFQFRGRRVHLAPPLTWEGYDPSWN
UniProt Q14566: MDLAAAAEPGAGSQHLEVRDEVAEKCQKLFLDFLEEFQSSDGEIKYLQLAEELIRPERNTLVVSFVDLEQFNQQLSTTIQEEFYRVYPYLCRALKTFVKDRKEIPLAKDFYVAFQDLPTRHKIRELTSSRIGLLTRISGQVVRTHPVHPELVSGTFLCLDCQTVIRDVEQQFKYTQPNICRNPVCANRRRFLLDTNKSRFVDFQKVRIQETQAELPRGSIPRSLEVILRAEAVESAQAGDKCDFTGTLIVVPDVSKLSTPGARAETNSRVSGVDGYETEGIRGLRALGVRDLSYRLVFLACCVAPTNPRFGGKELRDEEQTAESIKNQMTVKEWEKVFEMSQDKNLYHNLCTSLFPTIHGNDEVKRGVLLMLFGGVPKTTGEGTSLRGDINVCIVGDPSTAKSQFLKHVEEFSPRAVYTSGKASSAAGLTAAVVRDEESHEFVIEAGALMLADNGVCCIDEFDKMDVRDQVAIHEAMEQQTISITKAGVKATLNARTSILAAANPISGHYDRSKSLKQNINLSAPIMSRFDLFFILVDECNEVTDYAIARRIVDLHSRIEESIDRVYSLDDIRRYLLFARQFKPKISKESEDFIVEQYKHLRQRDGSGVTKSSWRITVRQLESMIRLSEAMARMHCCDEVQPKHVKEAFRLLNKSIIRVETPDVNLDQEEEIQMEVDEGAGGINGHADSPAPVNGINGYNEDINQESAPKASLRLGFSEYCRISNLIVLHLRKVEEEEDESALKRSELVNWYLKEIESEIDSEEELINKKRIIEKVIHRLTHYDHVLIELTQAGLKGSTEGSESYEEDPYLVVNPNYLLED
UniProt Q6ZWT7: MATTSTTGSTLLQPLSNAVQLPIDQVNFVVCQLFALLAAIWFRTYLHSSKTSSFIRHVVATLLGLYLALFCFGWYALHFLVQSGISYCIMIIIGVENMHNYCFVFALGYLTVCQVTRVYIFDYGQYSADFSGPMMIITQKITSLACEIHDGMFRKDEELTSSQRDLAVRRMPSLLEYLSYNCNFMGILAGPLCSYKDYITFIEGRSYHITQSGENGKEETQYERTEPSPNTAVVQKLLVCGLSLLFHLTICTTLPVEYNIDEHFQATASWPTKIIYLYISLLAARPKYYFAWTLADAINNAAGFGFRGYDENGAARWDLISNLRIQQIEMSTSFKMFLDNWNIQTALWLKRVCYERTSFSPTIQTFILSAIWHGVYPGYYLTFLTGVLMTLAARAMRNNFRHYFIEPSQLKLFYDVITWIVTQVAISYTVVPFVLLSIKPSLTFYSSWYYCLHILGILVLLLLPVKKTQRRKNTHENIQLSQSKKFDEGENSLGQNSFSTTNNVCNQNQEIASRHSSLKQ
UniProt Q9BQP7: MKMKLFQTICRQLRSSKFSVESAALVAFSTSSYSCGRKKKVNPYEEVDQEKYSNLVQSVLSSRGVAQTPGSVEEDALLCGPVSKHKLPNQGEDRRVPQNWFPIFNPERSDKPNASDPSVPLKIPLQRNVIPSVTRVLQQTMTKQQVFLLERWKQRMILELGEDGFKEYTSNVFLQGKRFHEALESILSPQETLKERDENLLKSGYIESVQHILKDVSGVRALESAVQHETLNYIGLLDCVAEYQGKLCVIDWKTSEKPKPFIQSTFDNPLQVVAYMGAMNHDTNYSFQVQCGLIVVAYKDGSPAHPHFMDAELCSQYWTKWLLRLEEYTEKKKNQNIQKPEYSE

[2] = compound: CC1=C(C=C(C=C1)NC(=O)C2=CC(=CC=C2)N(C)C)NC(=O)C3=CC=C(C=C3)O
In short: as §1

[3] = compound: CC1=CC=C(C=C1)SC2=C3C=C(SC3=CN=C2)C(=O)N
In short: as §1

[4] = compound: CC1=NC(=CC=C1)C2=C(N=C(N2)C(C)(C)C)C3=CC4=NC=CN=C4C=C3
In short: as §1

Nexturastat A = compound: CCCCN(Cc1ccc(C(=O)NO)cc1)C(=O)Nc1ccccc1 [Nexturastat A]
In short: as §1

vemurafenib = compound: CCCS(=O)(=O)Nc1ccc(F)c(C(=O)c2c[nH]c3ncc(-c4ccc(Cl)cc4)cc23)c1F [vemurafenib]
In short: as §1

[5] = compound: CCCS(=O)(=O)Nc1ccc(F)c(C(=O)c2c[nH]c3ncc(Cl)cc23)c1F
In short: as §1

[6] = compound: CCCc1cc(C)[nH]c(=O)c1CNC(=O)c1cc(-c2ccnc(N3CCN(C)CC3)c2)cc2c1cnn2C(C)C
In short: as §1

givinostat = compound: CCN(CC)Cc1ccc2cc(COC(=O)Nc3ccc(C(=O)NO)cc3)ccc2c1 [givinostat]
In short: as §1

barasertib = compound: CCN(CCCOc1ccc2c(Nc3cc(CC(=O)Nc4cccc(F)c4)[nH]n3)ncnc2c1)CCOP(=O)(O)O [barasertib]
In short: as §1

[7] = compound: CC[C@@H]1C(=O)N(C)c2cnc(Nc3ccc(C(=O)NC4CCN(C)CC4)cc3OC)nc2N1C1CCCC1
In short: as §1

volasertib = compound: CC[C@@H]1C(=O)N(C)c2cnc(Nc3ccc(C(=O)N[C@H]4CC[C@H](N5CCN(CC6CC6)CC5)CC4)cc3OC)nc2N1C(C)C [volasertib]
In short: as §1

[8] = compound: CC[C@H](C)N1C=C(C2=C(C=C(C=C21)C3=CN=C(C=C3)N4CCNCC4)C(=O)NCC5=C(C=C(NC5=O)C)C)C
In short: as §1

epoxomicin = compound: CC[C@H](C)[C@@H](C(=O)N[C@@H]([C@@H](C)O)C(=O)N[C@@H](CC(C)C)C(=O)[C@]1(CO1)C)NC(=O)[C@H]([C@@H](C)CC)N(C)C(=O)C [epoxomicin]
In short: as §1

[9] = compound: CCn1c(C(=O)N(C2CC2)C2CC2)cc2c3c(ncn3C)c(Nc3cc(C)n(C)n3)nc21
In short: as §1

[10] = compound: CCn1cc(-c2ccnc3[nH]c(-c4cccc(CN(C)C)c4)cc23)c(-c2ccc(NC(=O)N(C)C)cc2)n1
In short: as §1

[11] = compound: CN(C)CC(=O)Nc1ccc2[nH]c(=O)c3ccccc3c2c1
In short: as §1

rosiglitazone = compound: CN(CCOC1=CC=C(C=C1)C[C@H]2C(=O)NC(=O)S2)C3=CC=CC=N3 (racemic) [rosiglitazone]
In short: as §1

[12] = compound: CN1C2=C(C3=C1C(=O)N(N=C3)CC4=CC(=CC=C4)N)SC(=C2)S(=O)C
In short: as §1

[13] = compound: CN1CCC(CNc2ccc3ncc(-c4cccc(OC(F)(F)F)c4)n3n2)CC1
In short: as §1

Measured: log2 fold change

ME1 (UniProt P48163)
inactive: [1] 0.027 | [2] 0.01 | [3] 0.01 | [4] -0.015 | Nexturastat A -0.079 | vemurafenib 0.012 | [5] -0.019 | [6] -0.01 | givinostat -0.007 | barasertib 0.019 | [7] 0.083 | volasertib 0.032 | [8] -0.03 | epoxomicin 0.016 | [9] 0.019 | [10] -0.009 | [11] 0.009 | rosiglitazone 0.002 | [12] -0.063 | [13] -0.054

METTL5 (UniProt Q9NRN9)
inactive: [1] -0.011 | [2] 0.004 | [3] 0.01 | [4] 0.007 | Nexturastat A -0.035 | vemurafenib -0.016 | [5] -0.013 | [6] -0.002 | givinostat 0.01 | barasertib 0.001 | [7] 0.009 | volasertib 0.046 | [8] -0.032 | epoxomicin 0 | [9] 0.035 | [10] 0.003 | [11] 0.003 | rosiglitazone 0.008 | [12] -0.053 | [13] -0.014

MDH2 (UniProt P40926)
inactive: [1] -0.015 | [2] 0.013 | [3] 0.021 | [4] 0.001 | Nexturastat A -0.109 | vemurafenib -0.001 | [5] -0.02 | [6] -0.033 | givinostat -0.079 | barasertib -0.004 | [7] -0.026 | volasertib 0.066 | [8] -0.003 | epoxomicin -0.021 | [9] 0.021 | [10] 0.016 | [11] -0.009 | rosiglitazone -0.005 | [12] -0.024 | [13] 0.05

MARS2 (UniProt Q96GW9)
inactive: [1] -0.016 | [2] 0.028 | [3] -0.021 | [4] 0.004 | Nexturastat A -0.062 | vemurafenib -0.049 | [5] 0.012 | [6] 0.001 | givinostat -0.091 | barasertib -0.017 | [7] 0.039 | volasertib 0.061 | [8] -0.045 | epoxomicin 0.045 | [9] -0.011 | [10] -0.041 | [11] -0.021 | rosiglitazone 0.013 | [12] -0.054 | [13] 0.082

MCM7 (UniProt P33993)
inactive: [1] -0.014 | [2] 0.001 | [3] -0.009 | [4] 0.017 | Nexturastat A -0.01 | vemurafenib 0.044 | [5] 0.014 | [6] -0.028 | givinostat 0.012 | barasertib 0.014 | [7] -0.032 | volasertib -0.035 | [8] 0.049 | epoxomicin 0.02 | [9] 0.018 | [10] -0.024 | [11] 0.022 | rosiglitazone 0.012 | [12] -0.09 | [13] -0.112

MED18 (UniProt Q9BUE0)
inactive: [1] -0.081 | [2] -0.02 | [3] -0.031 | [4] 0.009 | Nexturastat A 0.026 | vemurafenib 0.051 | [5] -0.031 | [6] -0.02 | givinostat -0.015 | barasertib 0.094 | [7] -0.094 | volasertib -0.036 | [8] 0.063 | epoxomicin 0.028 | [9] -0.016 | [10] 0.046 | [11] 0.051 | rosiglitazone -0.008 | [12] 0.027 | [13] -0.082

Taken from the entries so far (2 entries):
MARS2 (UniProt Q96GW9)
inactive: [1] -0.016 | [2] 0.028 | [3] -0.021 | [4] 0.004 | Nexturastat A -0.062 | vemurafenib -0.049 | [5] 0.012 | [6] 0.001 | givinostat -0.091 | barasertib -0.017 | [7] 0.039 | volasertib 0.061 | [8] -0.045 | epoxomicin 0.045 | [9] -0.011 | [10] -0.041 | [11] -0.021 | rosiglitazone 0.013 | [12] -0.054 | [13] 0.082

MCM7 (UniProt P33993)
inactive: [1] -0.014 | [2] 0.001 | [3] -0.009 | [4] 0.017 | Nexturastat A -0.01 | vemurafenib 0.044 | [5] 0.014 | [6] -0.028 | givinostat 0.012 | barasertib 0.014 | [7] -0.032 | volasertib -0.035 | [8] 0.049 | epoxomicin 0.02 | [9] 0.018 | [10] -0.024 | [11] 0.022 | rosiglitazone 0.012 | [12] -0.09 | [13] -0.112

Next part

METAP2 (UniProt P50579)
inactive: [1] -0.151 | [2] -0.022 | [3] 0.025 | [4] -0.043 | Nexturastat A 0.02 | vemurafenib -0.04 | [5] -0.063 | [6] 0.007 | givinostat -0.22 | barasertib -0.02 | [7] 0.016 | volasertib 0.071 | [8] 0.007 | epoxomicin 0.031 | [9] -0.079 | [10] -0.078 | [11] -0.031 | rosiglitazone -0.014 | [12] 0.006 | [13] 0.204

MGST2 (UniProt Q99735)
inactive: [1] -0.045 | [2] 0.051 | [3] 0.013 | [4] -0.137 | Nexturastat A -0.026 | vemurafenib -0.016 | [5] -0.025 | [6] -0.126 | givinostat -0.053 | barasertib 0.017 | [7] 0.014 | volasertib 0.018 | [8] -0.082 | epoxomicin -0.13 | [9] 0.005 | [10] 0.202 | [11] 0.09 | rosiglitazone 0.042 | [12] 0.026 | [13] 0.073

MBOAT7 (UniProt Q96N66)
inactive: [1] 0 | [2] 0.017 | [3] 0.028 | [4] 0.016 | Nexturastat A -0.019 | vemurafenib 0.001 | [5] 0.012 | [6] -0.033 | givinostat -0.028 | barasertib -0.015 | [7] -0.03 | volasertib 0 | [8] -0.04 | epoxomicin 0.033 | [9] 0.018 | [10] 0.004 | [11] -0.024 | rosiglitazone 0.011 | [12] -0.05 | [13] 0.115

METTL3 (UniProt Q86U44)
inactive: [1] -0.013 | [2] 0.016 | [3] 0.02 | [4] 0.022 | Nexturastat A -0.01 | vemurafenib 0.016 | [5] 0.027 | [6] 0.032 | givinostat -0.028 | barasertib -0.006 | [7] 0.014 | volasertib -0.031 | [8] 0.049 | epoxomicin 0.045 | [9] -0.002 | [10] -0.088 | [11] 0.005 | rosiglitazone 0.008 | [12] -0.037 | [13] -0.013

METTL21A (UniProt Q8WXB1)
inactive: [1] 0.067 | [2] 0.018 | [3] 0.054 | [4] -0.01 | Nexturastat A -0.07 | vemurafenib 0.052 | [5] 0.059 | [6] 0.024 | givinostat -0.075 | barasertib 0.026 | [7] 0.038 | volasertib -0.007 | [8] -0.049 | epoxomicin -0.014 | [9] -0.189 | [10] -0.024 | [11] 0.019 | rosiglitazone 0.008 | [12] -0.142 | [13] 0.056

MEF2C isoform 5 (UniProt Q06413)
inactive: [1] -0.052 | [2] 0.026 | [3] -0.061 | [4] -0.052 | Nexturastat A 0.007 | vemurafenib -0.008 | [5] -0.079 | [6] 0.05 | givinostat -0.039 | barasertib -0.039 | [7] -0.074 | volasertib -0.138 | [8] 0.065 | epoxomicin -0.066 | [9] -0.034 | [10] -0.055 | [11] -0.07 | rosiglitazone -0.046 | [12] 0.19 | [13] -0.082

MGAT1 (UniProt P26572)
inactive: [1] 0.004 | [2] 0.074 | [3] -0.023 | [4] 0.06 | Nexturastat A -0.005 | vemurafenib 0.002 | [5] 0.001 | [6] 0.019 | givinostat -0.035 | barasertib -0.012 | [7] -0.001 | volasertib -0.014 | [8] 0.015 | epoxomicin 0.025 | [9] 0.024 | [10] -0.057 | [11] -0.073 | rosiglitazone 0.022 | [12] -0.121 | [13] 0.106

MCM6 (UniProt Q14566)
inactive: [1] -0.063 | [2] -0.004 | [3] -0.007 | [4] 0.018 | Nexturastat A -0.098 | vemurafenib 0.005 | [5] 0.044 | [6] -0.037 | givinostat -0.042 | barasertib 0.023 | [7] -0.003 | volasertib -0.068 | [8] 0.018 | epoxomicin 0.031 | [9] 0.003 | [10] -0.041 | [11] 0 | rosiglitazone 0.014 | [12] -0.085 | [13] -0.095

MBOAT2 (UniProt Q6ZWT7)
inactive: [1] 0.05 | [2] 0.02 | [3] -0.012 | [4] -0.032 | Nexturastat A 0.05 | vemurafenib 0.043 | [5] 0.062 | [6] -0.036 | givinostat 0.011 | barasertib 0.008 | [7] 0.022 | volasertib -0.095 | [8] 0.033 | epoxomicin 0.032 | [9] -0.035 | [10] -0.005 | [11] 0.038 | rosiglitazone -0.039 | [12] -0.076 | [13] 0.057

MGME1 (UniProt Q9BQP7)
inactive: [1] 0.011 | [2] 0.002 | [3] 0.029 | [4] 0.012 | Nexturastat A 0.003 | vemurafenib 0.022 | [5] 0.051 | [6] 0.014 | givinostat 0.002 | barasertib -0.02 | [7] -0.034 | volasertib 0.011 | [8] 0.011 | epoxomicin 0.046 | [9] 0.039 | [10] -0.048 | [11] -0.005 | rosiglitazone 0.023 | [12] -0.028 | [13] -0.059

— the supplement of paper PMC10849652
